{"sequences": {"note": "Chains of the proteins cited; added tags and fusions are not shown. Lines headed by an entry give the natural chain unless they say otherwise; changes in a name come on top.", "UniProt P51450": "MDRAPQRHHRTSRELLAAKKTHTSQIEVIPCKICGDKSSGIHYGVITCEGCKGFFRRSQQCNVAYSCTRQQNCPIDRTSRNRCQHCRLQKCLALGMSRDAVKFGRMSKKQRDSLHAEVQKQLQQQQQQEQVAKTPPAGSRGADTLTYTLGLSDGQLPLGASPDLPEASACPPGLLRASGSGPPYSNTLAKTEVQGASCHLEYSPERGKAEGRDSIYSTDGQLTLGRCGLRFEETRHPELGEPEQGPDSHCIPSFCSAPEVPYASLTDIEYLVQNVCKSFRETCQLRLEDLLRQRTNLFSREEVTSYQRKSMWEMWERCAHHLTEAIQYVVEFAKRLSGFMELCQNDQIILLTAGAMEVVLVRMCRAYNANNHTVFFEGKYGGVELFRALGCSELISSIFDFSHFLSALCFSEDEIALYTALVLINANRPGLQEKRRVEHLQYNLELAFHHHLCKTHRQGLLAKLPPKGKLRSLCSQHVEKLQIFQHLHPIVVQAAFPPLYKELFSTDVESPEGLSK"}, "source": "PubChem BioAssay AID2551", "about": "(National Center for Advancing Translational Sciences (NCATS), 2010)", "note": "Out of some 310,000 compounds screened, about 17,000 (5.5%) were called active. The shares of active, inactive and inconclusive entries below differ from those in the screen. Calls follow the shape of the dose curve; as a rule, active = well fitted inhibition curve with a large enough effect; inconclusive = small, poorly fitted or top-dose-only effect, or effect the other way; inactive = no such curve, though single readings can be large or run the other way. Potencies beside an inconclusive call are fits to weak or partial responses and may not hold up. Potency is read from the fitted curve at half-maximal effect.", "data": [{"target": "Nuclear receptor ROR-gamma (Mus musculus) (UniProt P51450)", "experiment": "qHTS for inhibitors of ROR gamma transcriptional activity; also: nearly all actives have a fitted effect of over 60% in size", "details": "Drosophila S2 Gal4-RORgamma UAS-luciferase reporter, 20 h; series mostly up to 53.6 µM", "method_in_brief": "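In this cell-based reporter format, copper sulfate (700 uM final) drives Gal4–ROR gamma fusion expression from a metallothionein promoter in Drosophila Schneider cells; compounds preincubated 1 hr, reporter read after 20 hr at ambient temperature.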", "values": [{"smiles": "O=[N+]([O-])c1cccc(/C=N/n2c(COc3ccccc3)n[nH]c2=S)c1", "Potency": "active: 12.6 µM"}, {"smiles": "COc1ccc2c(c1)CCC/C2=N\\NC(=O)c1ccoc1C", "Potency": "active: 39.8 µM"}, {"smiles": "CCOc1ccc2nc(NC(=O)COC)sc2c1", "Potency": "inactive"}, {"smiles": "Cn1/c(=N\\NC(=O)C2CCCCC2)sc2ccccc21", "Potency": "inconclusive: 17.8 µM [activator, partial curve, poor fit]"}, {"smiles": "CC(C)c1ccc(N2C(=O)CC(Sc3ncccn3)C2=O)cc1", "note": "(centres undefined)", "Potency": "inconclusive: 35.5 µM [inhibitor, single point]"}, {"smiles": "O=C(CCCN1C(=O)/C(=C\\c2cccs2)SC1=S)Nc1ccc(O)cc1", "Potency": "inconclusive: 8.91 µM [inhibitor, partial curve]"}, {"smiles": "C/C(=N\\NC(=S)NC(C)C)c1ccco1", "Potency": "inconclusive: 2 µM [inhibitor, full curve]"}, {"smiles": "CC1Cc2ccccc2N1C(=O)Cn1c(=O)oc2cc(S(=O)(=O)N3CCCCC3)ccc21", "note": "(centres undefined)", "Potency": "inconclusive: 11.2 µM [inhibitor, single point]"}, {"smiles": "CSc1nc(N)nc(SC2C=CCCC2)c1C#N", "note": "(centres undefined)", "Potency": "inactive"}, {"smiles": "NC(=O)C1(N2CCCCC2)CCN(C(=S)Nc2ccccc2)CC1", "Potency": "inactive"}, {"smiles": "CC(=O)NNc1ncnc2c1cnn2-c1ccc(C)c(C)c1", "Potency": "inactive"}, {"smiles": "Cc1ccc2[nH]c(=O)c(C(c3nnnn3CC3CCCO3)N3CCOCC3)cc2c1", "note": "(centres undefined)", "Potency": "inactive"}, {"smiles": "COc1ccc(-c2c3c(nc4sc(C(=O)Nc5cc(C)on5)c(N)c24)CCC3)cc1", "Potency": "inconclusive: 11.2 µM [inhibitor, partial curve, poor fit]"}, {"smiles": "Cc1nnc(NC(=O)CSc2nnc(CC(=O)Nc3ccccc3F)n2C)s1", "Potency": "inactive"}, {"smiles": "Nc1cccn2c(-c3ccc(Cl)cc3)cnc12", "Potency": "inactive"}, {"smiles": "N#Cc1nc(-c2cccs2)oc1NCc1ccco1", "Potency": "inconclusive: 25.1 µM [activator, single point]"}, {"smiles": "CCOC(=O)C1=C(C)NC2=C(C(=O)CC(c3cccs3)C2)C1c1cccs1", "note": "(centres undefined)", "Potency": "inconclusive: 4.47 µM [activator, full curve, poor fit]"}, {"smiles": "O=C(CO/N=C/c1cccc([N+](=O)[O-])c1)NC1CCCCC1", "Potency": "inactive"}, {"smiles": "COc1ccc(-c2nnc(Nc3nc4c(OC)cccc4s3)o2)cc1", "Potency": "active: 11.2 µM"}, {"smiles": "COc1ccc(N/C=C/C(=O)c2ccc(Oc3ncccn3)cc2)cc1", "Potency": "inconclusive: 35.5 µM [inhibitor, single point]"}, {"smiles": "CC(=O)NC(=S)Nc1ccc(N2CCOCC2)c(S(=O)(=O)Nc2cc(Cl)ccc2Cl)c1", "Potency": "inconclusive: 17.8 µM [inhibitor, single point]"}, {"smiles": "CCCC(C)NC(C)C(=O)NC1CCCC1", "note": "(centres undefined)", "Potency": "inconclusive: 20 µM [inhibitor, partial curve, poor fit]"}, {"smiles": "CCOc1cc(/C=N/Nc2cc(C)nc3ccc(C)cc23)ccc1O", "Potency": "inactive"}, {"smiles": "Cc1occc1C(=O)NNC(=S)NCc1ccccc1", "Potency": "inconclusive: 11.2 µM [inhibitor, partial curve, poor fit]"}, {"smiles": "Cc1ccc(C(=O)NCCC(=O)N2CCCC2)cc1", "Potency": "inconclusive: 15.8 µM [inhibitor, single point]"}, {"smiles": "O=C(NC1=NCCS1)c1ccc(OCC2CCCO2)cc1", "note": "(centres undefined)", "Potency": "inconclusive: 14.1 µM [inhibitor, single point]"}, {"smiles": "CC(/C=N/NC(=O)CN1CCN(Cc2ccc(Cl)cc2)CC1)=C\\c1ccco1", "Potency": "inconclusive: 11.2 µM [activator, partial curve]"}, {"smiles": "O=C(Nc1ccnc(-c2cccnc2)n1)c1cccs1", "Potency": "inconclusive: 8.91 µM [activator, partial curve]"}, {"smiles": "CCCc1nnc(SCC(=O)Nc2nnc(CC)s2)n1CC1CCCO1", "note": "(centres undefined)", "Potency": "inactive"}, {"smiles": "COc1cc(NC(=O)C2CC2)c(C(=O)O)cc1OC", "Potency": "inconclusive: 2.24 µM [inhibitor, partial curve]"}, {"smiles": "Cc1cccc(NC(=O)CN(C)S(=O)(=O)c2cccc3cccnc23)c1C", "Potency": "inconclusive: 3.55 µM [inhibitor, partial curve, poor fit]"}, {"smiles": "COc1cc(-c2nnc(-c3ccc(N4CCOCC4)cc3)o2)cc(OC)c1OC", "Potency": "inactive"}, {"smiles": "CN(c1ccccc1)c1nc(-n2ccnc2)nc(-n2ccnc2)n1", "Potency": "inactive"}, {"smiles": "NNC(=O)c1[nH]c2ccc(Cl)cc2c1-c1ccccc1", "Potency": "inconclusive: 22.4 µM [inhibitor, single point]"}, {"smiles": "COC(=O)c1ccc(Cl)c(NC(=O)c2ccc(-c3ccccc3)cc2)c1", "Potency": "inconclusive: 22.4 µM [inhibitor, single point]"}, {"smiles": "CCc1ccc(Oc2cc(Cl)nc(N)n2)cc1", "Potency": "inconclusive: 3.16 µM [activator, full curve]"}, {"smiles": "CCCOc1ccc(C(=O)NCCc2ccccc2)cc1", "Potency": "active: 11.2 µM"}, {"smiles": "CCCN1CNC(=S)N(c2ccccc2OCC)C1", "Potency": "active: 10 µM"}, {"smiles": "COc1ccccc1CNS(=O)(=O)c1ccc(-c2cc(C)no2)cc1", "Potency": "inconclusive: 31.6 µM [activator, single point]"}, {"smiles": "CCN1CCCC1CNC(=O)c1ccc2c(c1)NC(=O)/C(=C\\c1ccc(OC)c(OC)c1)S2", "note": "(centres undefined)", "Potency": "inconclusive: 11.2 µM [inhibitor, single point]"}, {"smiles": "CN(C)CCCNS(=O)(=O)c1ccc(N2CCN(Cc3ccc4c(c3)OCO4)CC2)c([N+](=O)[O-])c1", "Potency": "inconclusive: 12.6 µM [activator, partial curve]"}, {"smiles": "CC1(c2nnc(-c3ccncc3)o2)CC(c2ccc([N+](=O)[O-])cc2)=NO1", "note": "(centres undefined)", "Potency": "inconclusive: 1.41 µM [activator, partial curve, poor fit]"}, {"smiles": "CCn1cc(C(=O)O)c(=O)c2cc(F)c(N3CCN(C(=S)NC(=O)c4cccc(C)c4)CC3)cc21", "Potency": "inconclusive: 1.58 µM [inhibitor, partial curve, poor fit]"}, {"smiles": "c1ccc(N2CCCCC2)c(Nc2nc3ccccc3n3cnnc23)c1", "Potency": "inactive"}, {"smiles": "Cc1nn(CCC(=O)NNC(=S)NCC(C)C)c(C)c1Br", "Potency": "active: 0.708 µM"}, {"smiles": "Cc1ccc(S(=O)(=O)N2CCCCC2)cc1NC(=O)CNCc1ccco1", "Potency": "inactive"}, {"smiles": "O=C(CC12CC3CC(C1)CC(CC(=O)NC1=NCCS1)(C3)C2)NC1=NCCS1", "Potency": "inconclusive: 35.5 µM [inhibitor, single point]"}, {"smiles": "Cc1ccc(NC(=O)c2nc[nH]c2C(=O)N2CCC(C)CC2)cc1", "Potency": "active: 8.91 µM"}, {"smiles": "CN(C)C(CNC(=O)C1CCN(C(=O)/C=C/c2ccccc2)CC1)c1ccccc1", "note": "(centres undefined)", "Potency": "inactive"}, {"smiles": "Cc1ccc(NC(=O)C(c2ccccc2)N(C)C)cc1Cl", "note": "(centres undefined)", "Potency": "active: 17.8 µM"}, {"smiles": "Cc1ccc(O)c(-c2cc(C(=O)Nc3ccc(S(=O)(=O)Nc4nccc(C)n4)cc3)[nH]n2)c1", "Potency": "inconclusive: 35.5 µM [activator, single point]"}, {"smiles": "O=C(Nc1ccccc1)C1Cc2ccccc2CN1C(=O)c1ccco1", "note": "(centres undefined)", "Potency": "inactive"}, {"smiles": "O=C(/C=C/c1cccc([N+](=O)[O-])c1)N1CCN(c2ccc(F)cc2)CC1", "Potency": "inconclusive: 35.5 µM [activator, single point]"}, {"smiles": "Cc1ccc(-c2csc(NC(=O)c3ccc4c(=O)n5c(nc4c3)CCCCC5)n2)cc1", "Potency": "inconclusive: 0.562 µM [activator, partial curve]"}, {"smiles": "CCC(CC)c1nnc(NC(=O)CN2C(=O)C3C4C=CC(C4)C3C2=O)s1", "note": "(centres undefined)", "Potency": "inconclusive: 2.24 µM [inhibitor, partial curve, poor fit]"}, {"smiles": "COc1ccc(Nc2ccc(S(=O)(=O)N3CCCCC3)cc2[N+](=O)[O-])cc1OC", "Potency": "inconclusive: 25.1 µM [activator, single point]"}, {"smiles": "COC(=O)c1ccc(NC(=S)NC(=O)c2cccnc2)cc1", "Potency": "inconclusive: 35.5 µM [inhibitor, single point]"}, {"smiles": "Cc1noc(C)c1CSc1nc2ccccc2c(=O)n1-c1ccc(F)cc1F", "Potency": "inactive"}, {"smiles": "O=C(Nc1cccnc1)c1ccc(N2CCOCC2)c([N+](=O)[O-])c1", "Potency": "inconclusive: 15.8 µM [activator, partial curve]"}, {"smiles": "Cn1c(NCc2ccco2)nc2c1c(=O)n(Cc1ccc(Cl)c(Cl)c1)c(=O)n2C", "Potency": "inconclusive: 3.16 µM [activator, single point]"}, {"smiles": "Cc1nn(C)c(C(=O)NN)c1Cl", "Potency": "active: 11.2 µM"}, {"smiles": "COc1ccc(NC(=O)C2CC(c3ccc(Cl)cc3)=NO2)cc1OC", "note": "(centres undefined)", "Potency": "inconclusive: 17.8 µM [activator, partial curve, poor fit]"}, {"smiles": "O=c1[nH]c(=O)n(-c2cc(Br)c(O)c(Br)c2)cc1Br", "Potency": "inactive"}, {"smiles": "Cc1cc2c(=O)n(CC(=O)N3CCN(c4ccc(F)cc4)CC3)cnc2s1", "Potency": "inactive"}, {"smiles": "CC(NC(=O)/C(C#N)=C/c1ccc([N+](=O)[O-])o1)c1ccccc1", "note": "(centres undefined)", "Potency": "active: 5.01 µM"}, {"smiles": "Cc1cc(=O)n2[nH]c(-c3ccc(C(C)(C)C)cc3)cc2n1", "Potency": "inconclusive: 35.5 µM [inhibitor, single point]"}, {"smiles": "CCOc1ccc(-n2cc(-c3ccc(OC)c(OC)c3)[nH]c2=S)cc1", "Potency": "active: 1.26 µM"}, {"smiles": "OC(CNc1nc2ccccc2s1)c1ccccc1", "note": "(centres undefined)", "Potency": "inconclusive: 20 µM [activator, single point]"}, {"smiles": "O=C(CSc1ccc2nnc(-c3ccccc3)n2n1)N1CCCc2ccccc21", "Potency": "inconclusive: 20 µM [activator, single point]"}, {"smiles": "c1ccc(-c2nnc(-c3ccccn3)nc2NC2CCCCC2)cc1", "Potency": "inactive"}, {"smiles": "Cc1[nH]c2ccccc2c1/C=N/Nc1ccccc1[N+](=O)[O-]", "Potency": "inconclusive: 2.24 µM [activator, partial curve]"}, {"smiles": "COc1ccc(Cl)cc1C(=O)NCCc1ccc(S(=O)(=O)NC(=O)NC2CCCCC2)cc1", "Potency": "inconclusive: 31.6 µM [activator, single point]"}, {"smiles": "Cc1nc2oc3ccc(F)cc3c(=O)c2cc1C(=O)O", "Potency": "inactive"}, {"smiles": "CC(=O)c1cccc(N(CC(=O)NCC2CCCO2)C(=O)CCC(=O)Nc2cc(C)on2)c1", "note": "(centres undefined)", "Potency": "inactive"}]}]}
